Reference: paper PMC6650902
No constants are given. Whether binding was seen depends on the method and setting. Binding seen in cells or lysates may run through a third protein. These calls come from enrichment with a bait or labelling near it, and not all partners need be listed.

T1: TAF1-TAP (S. cerevisiae) (UniProt P46677)
T1 sequence: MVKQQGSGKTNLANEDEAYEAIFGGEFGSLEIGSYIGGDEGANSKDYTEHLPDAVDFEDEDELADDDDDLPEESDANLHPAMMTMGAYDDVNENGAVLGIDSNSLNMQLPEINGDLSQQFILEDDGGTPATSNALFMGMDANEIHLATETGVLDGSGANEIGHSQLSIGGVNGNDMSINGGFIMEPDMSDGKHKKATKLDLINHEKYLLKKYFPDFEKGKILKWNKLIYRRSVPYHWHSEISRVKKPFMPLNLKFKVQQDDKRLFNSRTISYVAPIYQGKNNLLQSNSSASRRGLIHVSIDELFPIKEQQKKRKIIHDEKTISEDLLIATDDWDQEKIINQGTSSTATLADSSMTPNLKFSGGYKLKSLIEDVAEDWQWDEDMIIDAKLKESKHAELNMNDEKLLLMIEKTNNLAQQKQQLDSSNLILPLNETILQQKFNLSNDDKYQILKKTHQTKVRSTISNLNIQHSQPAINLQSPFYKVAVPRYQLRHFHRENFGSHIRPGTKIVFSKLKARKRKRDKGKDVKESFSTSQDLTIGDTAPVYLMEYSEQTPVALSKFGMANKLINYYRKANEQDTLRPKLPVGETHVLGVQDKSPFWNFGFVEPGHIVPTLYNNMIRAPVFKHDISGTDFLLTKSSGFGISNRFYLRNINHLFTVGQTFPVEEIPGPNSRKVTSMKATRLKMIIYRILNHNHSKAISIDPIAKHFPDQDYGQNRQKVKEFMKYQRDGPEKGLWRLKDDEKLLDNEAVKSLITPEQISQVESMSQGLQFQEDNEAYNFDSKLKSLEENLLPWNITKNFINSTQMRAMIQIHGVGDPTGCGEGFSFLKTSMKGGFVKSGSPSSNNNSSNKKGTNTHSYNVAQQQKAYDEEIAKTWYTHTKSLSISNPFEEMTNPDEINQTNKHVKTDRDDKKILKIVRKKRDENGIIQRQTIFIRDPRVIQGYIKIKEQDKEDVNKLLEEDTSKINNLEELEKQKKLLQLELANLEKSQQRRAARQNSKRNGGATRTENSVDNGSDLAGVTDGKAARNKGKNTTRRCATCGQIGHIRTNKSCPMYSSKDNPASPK

B1: TAF9 (protein, UniProt Q05027 1-157)
chain: MNGGGKNVLNKNSVGSVSEVGPDSTQEETPRDVRLLHLLLASQSIHQYEDQVPLQLMDFAHRYTQGVLKDALVYNDYAGSGNSAGSGLGVEDIRLAIAARTQYQFKPTAPKELMLQLAAERNKKALPQVMGTWGVRLPPEKYCLTAKEWDLEDPKSM
B2: TAF10 (protein, UniProt Q12030 1-206)
chain: MDFEEDYDAEFDDNQEGQLETPFPSVAGADDGDNDNDDSVAENMKKKQKREAVVDDGSENAFGIPEFTRKDKTLEEILEMMDSTPPIIPDAVIDYYLTKNGFNVADVRVKRLLALATQKFVSDIAKDAYEYSRIRSSVAVSNANNSQARARQLLQGQQQPGVQQISQQQHQQNEKTTASKVVLTVNDLSSAVAEYGLNIGRPDFYR

Target: T1, TAF1-TAP (S. cerevisiae)
Test: affinity purification with mass spectrometry; lysate of the TAF1-TAP strain on an IgG column; washes with 1 M and 50 mM potassium acetate; TEV protease elution; Superose 6 size exclusion (single peak at about 12.6 mL); subunits seen by SDS-PAGE and confirmed by mass spectrometry

Binder	binding
B1	binds
B2	binds
